Binding data for 13 molecules are collected here from article PMC11585782, “The Plastidial Protein Acetyltransferase GNAT1 Forms a Complex With GNAT2, yet Their Interaction Is Dispensable for State Transitions” (Molecular & Cellular Proteomics : MCP, 2024).

This test deals with T1, GNAT1-GFP (Arabidopsis thaliana) (UniProt Q9C666).
T1 sequence: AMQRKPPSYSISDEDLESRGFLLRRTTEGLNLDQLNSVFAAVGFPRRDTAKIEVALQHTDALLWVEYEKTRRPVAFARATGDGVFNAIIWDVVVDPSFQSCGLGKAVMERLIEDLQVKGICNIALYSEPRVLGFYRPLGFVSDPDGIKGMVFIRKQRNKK
Nature of the test: affinity purification with mass spectrometry; GFP-Trap A beads with 2 mg leaf protein of GNAT1-, GNAT2- or GNAT3-GFP overexpressing Arabidopsis lines, 2 h at 4 °C; extraction buffer 50 mM HEPES-KOH pH 7.5, 150 mM NaCl, 10% glycerol, 2 mM EDTA, 5 mM DTT, 0.5% Triton X-100; label-free quantification against a chloroplast-targeted GFP control line; four biological replicates.

Results are given in words; binding and its absence hold for the method and conditions named. Binding seen in cells or lysates may run through a third protein. A yes stands for co-enrichment or nearness to the bait. Other partners may have been found. Sequences can lack the tags named with a protein.

B1: SVR3 (protein, UniProt F4K410 59-675)
chain: SASPSTAEPASEVKKKQLDRRDNVRNIAIVAHVDHGKTTLVDSMLRQAKVFRDNQVMQERIMDSNDLERERGITILSKNTSITYKNTKVNIIDTPGHSDFGGEVERVLNMVDGVLLVVDSVEGPMPQTRFVLKKALEFGHAVVVVVNKIDRPSARPEFVVNSTFELFIELNATDEQCDFQAIYASGIKGKAGLSPDDLAEDLGPLFEAIIRCVPGPNIEKDGALQMLATNIEYDEHKGRIAIGRLHAGVLRKGMDVRVCTSEDSCRFARVSELFVYEKFYRVPTDSVEAGDICAVCGIDNIQIGETIADKVHGKPLPTIKVEEPTVKMSFSVNTSPFSGREGKYVTSRNLRDRLNRELERNLAMKVEDGETADTFIVSGRGTLHITILIENMRREGYEFMVGPPKVINKRVNDKLLEPYEIATVEVPEAHMGPVVELLGKRRGQMFDMQGVGSEGTTFLRYKIPTRGLLGLRNAILTASRGTAILNTVFDSYGPWAGDISTRDLGSLVAFEDGTSTSYALASAQERGQMFVGSGVDVYKGQIVGIHQRPGDLGLNICKKKAATNIRSNKDVTVILDTPLTYSLDDCIEYIEEDELVEVTPSSIRMCKNQKMAKKGRQ
In the case of B1, the binding entry is reported as “binds”.

B2: ATP sulfurylase APS2 (enzyme, UniProt Q43870 57-476)
chain: KMTVKSSLIDPDGGELVELIVPETEIGVKKAESETMPKVKLNQIDLEWVHVISEGWASPLKGFMREDEYLQSLHFNSLRLKNGTFVNMSLPIVLAIDDDTKEQIGSSENVALVCPQGDIIGSLRSVEIYKHNKEERIARTWGTTSPGLPYVEEYITPSGNWLIGGDLEVFEPIKYNDGLDHYRLSPKQLREEFDNRQADAVFAFQLRNPVHNGHALLMNDTRKRLLEMGYKNPVLLLHPLGGFTKADDVPLDVRMEQHSKVLEDGVLDPKTTIVSIFPSPMHYAGPTEVQWHAKARINAGANFYIVGRDPAGMGHPTEKRDLYDPDHGKRVLSMAPGLEKLNILPFRVAAYDTIEKKMAFFDPSRAKEFLFISGTKMRTYARTGENPPDGFMCPSGWNVLVKYYESLQESEAKQQAVVSA
Regarding B2, the binding entry is “binds”.

B3: Seedling Plastid Development 1 (protein, UniProt F4J3R7 79-684)
chain: DSSISSRKSPTTAPPTVELDAFLEILPPATRKELVKHEAIEELIEVVMDLGRKPLARFPSGDWVISEQPVTHQDLELAVSKVGDFSDDNRSGIDRSLHRISAIRNRKLQVIGLTCRVGRVVSGSAEIIRDLIEGGGSILVIGSPGVGKTTLIREIARMLADEHRKRVVIVDTSNEIGGDGDVPHSGIGRARRMQVPNVNLQHDVMIEAVENHMPETIIIDEIGTELEALAASTIAQRGVQLVATAHGMTIDNIIKNPSLQILIGGIESVTLGDEEARKRKVQKTILERKGPPTFTCAVEMISRTECRVHQRLDVTVDAILAGKSAPFEIRQIRGEDDVPHKLVTPIPLENLEEEPAPLLNRDFVSELLSDDEDEDFLLIRSNKARSNTYTSPRSSPVHVYTYNVLEADLLQVAEVMGLDDEIEVTDDVGEADVILASSSELKQNSSIRRVAKLHKLPIFVIKSTTMAQMVKAVRMILGRESFGSAPKAIEKSSVDDIEIKDDAPESKPSLEELDALEEVRLAIEYIVIPGGEPVELLPRRSDIIVRQLELVESYQLAVENLGTHLNPRLQILPRRSTKKTLTSSSPQKSADGSMGTTGTRLPFLKD
As to B3, the binding result is given as “binds”.

B4: 6-Phosphogluconate Dehydrogenase PGD1 (enzyme, UniProt Q9SH69 1-487)
chain: MESAALSRIGLAGLAVMGQNLALNIAEKGFPISVYNRTTSKVDETLDRAAVEGNLPVSGQYSPRDFVLSIQRPRSLIILVKAGAPVDQTIDAFSEYMEPGDCIIDGGNEWYQNTERRISEAEQKGLLYLGMGVSGGEEGARNGPSLMPGGSFQAYDNIKDILEKVAAQVEDGPCVTYIGEGGSGNFVKMVHNGIEYGDMQLISEAYDVLKNVGGLSNEELAEIFTEWNSGELESFLVEITSDIFRVKDEFGDGELVDKILDKTGMKGTGKWTVQQAAELSVAAPTIAASLDCRYLSGLKDERENAAKVLREAGLKEEIGSASSGIDKKRLVDDVRQALYASKICSYAQGMNLLRAKSLEKSWNLNFGELARIWKGGCIIRAVFLDRIKKAYQRNPDLASLVVDPEFAKEMVQRQAAWRRVVGLAVSAGISTPGMCASLAYFDTYRRARLPANLVQAQRDLFGAHTYERTDRPGAYHTEWTKLARKNH
B4: the binding result is reported as “binds”.

B5: RPL16 (protein, UniProt P56793 1-135)
chain: MLSPKRTRFRKQHRGRLKGISSRGNRICFGRYALQTLEPAWITSRQIEAGRRAMTRNVRRGGKIWVRIFPDKPVTVRPAETRMGSGKGSPEYWVAVVKPGKILYEMGGVPENIARKAISIAASKMPIKTQFIISE
B5: the binding result is given as “binds”.

B6: Accumulation and Replication of Chloroplasts 11 (protein, UniProt Q9MBA2 63-326)
chain: ITSGKGGVGKTTTTANVGLSLARYGFSVVAIDADLGLRNLDLLLGLENRVNYTCVEVINGDCRLDQALVRDKRWSNFELLCISKPRSKLPMGFGGKALEWLVDALKTRPEGSPDFIIIDCPAGIDAGFITAITPANEAVLVTTPDITALRDADRVTGLLECDGIRDIKMIVNRVRTDMIKGEDMMSVLDVQEMLGLSLLGVIPEDSEVIRSTNRGFPLVLNKPPTLAGLAFEQAAWRLVEQDSMKAVMVEEEPKKRGFFSFFGG
With B6, the binding entry was “binds”.

B7: 6-Phosphogluconate Dehydrogenase PGD3 (enzyme, UniProt Q9FFR3 1-487)
chain: MESVALSRIGLAGLAVMGQNLALNIADKGFPISVYNRTTSKVDETLDRASNEGKLPVAGQYSPRDFVLSIQRPRSVIILVKAGAPVDQTISALSEYMEPGDCIIDGGNEWYQNTERRIVEAEKKGLLYLGMGVSGGEEGARNGPSLMPGGSFTAYNNVKDILEKVAAQVEDGPCVTYIGEGGSGNFVKMVHNGIEYGDMQLISEAYDVLKNVGGLSNDELAEIFTEWNRGELESFLVEITSDIFRVKDDYGDGELVDKILDKTGMKGTGKWTVQQAAELSVAAPTIAASLDCRYLSGLKDERENAAKVLEEAGLKEDIGSASRGVDKKRLIDDVRQALYASKICSYAQGMNLLRAKSLEKGWDLNLGEMARIWKGGCIIRAVFLDRIKKAYQRNPNLASLVVDPDFAKEMVQRQAAWRRVVGLAISAGISTPGMCASLAYFDTYRRARLPANLVQAQRDLFGAHTYERTDRPGAYHTEWTKLARKSQ
In the case of B7, the binding result is “binds”.

B8: CRR41 (protein, UniProt Q9C685 39-211)
chain: CSSNPESKDQFINLTPAPESINTTSAEKFPIEKRRRSEIIRDRTQRGIEKPEPPNFEIGWKRTKEINLEKPKGYVIMDFLEKFEALMAREFGSKELLAKAGEIVAERAREEAEVLRDEGKVEERMVTELFRVLKLMEMDLAMVKASVKDETLSQRIEQARARCRQAILVANSF
With B8, the binding entry is “binds”.

B9: ATP sulfurylase APS1 (enzyme, UniProt Q9LIK9 49-463)
chain: GLIAPDGGKLVELIVEEPKRREKKHEAADLPRVELTAIDLQWMHVLSEGWASPLGGFMRESEFLQTLHFNSLRLDDGSVVNMSVPIVLAIDDEQKARIGESTRVALFNSDGNPVAILSDIEIYKHPKEERIARTWGTTAPGLPYVDEAITNAGNWLIGGDLEVLEPVKYNDGLDRFRLSPAELRKELEKRNADAVFAFQLRNPVHNGHALLMTDTRRRLLEMGYKNPILLLHPLGGFTKADDVPLDWRMKQHEKVLEDGVLDPETTVVSIFPSPMHYAGPTEVQWHAKARINAGANFYIVGRDPAGMGHPVEKRDLYDADHGKKVLSMAPGLERLNILPFRVAAYDKTQGKMAFFDPSRPQDFLFISGTKMRTLAKNNENPPDGFMCPGGWKVLVDYYESLTPAGNGRLPEVVPV
As for B9, the binding result is listed as “binds”.

B10: ATP sulfurylase APS4 (enzyme, UniProt Q9S7D8 52-469)
chain: GLIEPDGGKLMNLVVEESRRRVMKHEAETVPARIKLNRVDLEWVHVLSEGWASPLKGFMRQSEFLQTLHFNSFRLEDGSVVNMSVPIVLAIDDDQKFRIGDSNQVTLVDSVGNPIAILNDIEIYKHPKEERIARTWGTTARGLPYAEEAITKAGNWLIGGDLQVLEPIKYNDGLDRFRLSPSQLREEFIRRGADAVFAFQLRNPVHNGHALLMTDTRRRLLEMGYKNPVLLLNPLGGFTKADDVPLSWRMRQHEKVLEDGVLDPETTVVSIFPSPMLYAGPTEVQWHAKARINAGANFYIVGRDPAGMGHPTEKRDLYDADHGKKVLSMAPGLERLNILPFKVAAYDKTQGKMAFFDPSRSQDFLFISGTKMRGLAKKKENPPDGFMCPSGWKVLVDYYDSLSAETGNGRVSEAVASA
As to B10, the binding result is given as “binds”.

B11: RNA Polymerase subunit Alpha (protein, UniProt P56762 1-329)
chain: MVREKVKVSTRTLQWKCVESKRDSKRLYYGRFILSPLMKGQADTIGIAMRRALLGEIEGTCITRAKSENIPHDYSNIAGIQESVHEILMNLNEIVLRSNLYGTRNALICVQGPGYITARDIILPPAVEIIDNTQHIATLTEPIDLCIELKIERNRGYSLKMSNNFEDRSYPIDAVFMPVENANHSIHSYGNGNEKQEILFLEIWTNGSLTPKEALHQASRNLINLFIPFLHVEEETFYLENNQHQVTLPFFPFHNRLVNLRKKKKTKELAFQYIFIDQLELPPRIYNCLKKSNIHTLLDLLNNSQEDLIKIEHFHVEDVKKILDILEKK
On to B11, for which the binding entry was “binds”.

B12: LHCB4.3 (protein, UniProt Q9S7W1 30-276)
chain: RFGFSFGKKKPAPPPKKSRQVQDDGDRLVWFPGANPPEWLDGSMIGDRGFDPFGLGKPAEYLQYDFDGLDQNLAKNVAGDIIGIIQESSEIKPTPFQPYTEVFGIQRFRECELIHGRWAMLGTLGAIAVEALTGIAWQDAGKVELVEGSSYLGQPLPFSLTTLIWIEVLVVGYIEFQRNSELDPEKRIYPGGYFDPLGLAADPEKLDTLKLAEIKHSRLAMVAFLIFALQAAFTGKGPVSFLATFNN
Take B12: the binding entry was “binds”.

B13: HCF136 (protein, UniProt O82660 79-403)
chain: DEQLSEWERVFLPIDPGVVLLDIAFVPDEPSRGFLLGTRQTLLETKDGGSTWNPRSIPSAEEEDFNYRFNSISFKGKEGWIIGKPAILLYTADAGENWDRIPLSSQLPGDMVFIKATEDKSAEMVTDEGAIYVTSNRGYNWKAAIQETVSATLNRTVSSGISGASYYTGTFSAVNRSPDGRYVAVSSRGNFFLTWEPGQPYWQPHNRAVARRIQNMGWRADGGLWLLVRGGGLYLSKGTGITEEFEEVPVQSRGFGILDVGYRSEEEAWAAGGSGILLRTRNGGKSWNRDKAADNIAANLYAVKFVDDKKGFVLGNDGVLLRYVG
As for B13, the binding result is “binds”.
